# According to patent US20210054094A1:
# Amino acid sequences for entries named in this document (tags omitted). A change or cut given only in a name is not applied to a line headed by its entry.
# UniProt Q9NZD1: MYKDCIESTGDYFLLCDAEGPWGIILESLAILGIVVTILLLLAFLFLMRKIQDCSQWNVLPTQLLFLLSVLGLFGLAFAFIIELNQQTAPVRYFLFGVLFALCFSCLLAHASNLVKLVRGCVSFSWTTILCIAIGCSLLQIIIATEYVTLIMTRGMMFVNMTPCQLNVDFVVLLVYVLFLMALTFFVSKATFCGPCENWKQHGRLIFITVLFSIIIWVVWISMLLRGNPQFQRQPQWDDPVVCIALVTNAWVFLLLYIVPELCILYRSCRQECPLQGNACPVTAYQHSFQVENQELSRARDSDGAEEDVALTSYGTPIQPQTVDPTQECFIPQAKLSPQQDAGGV
# Results are given in words; binding and its absence hold for the method and conditions named. Some entries that bind do so weakly or less than the wild type.
# Molecular target: human GPRC5D (human) (UniProt Q9NZD1)
# Experiment: cell ELISA, CHO expressing human GPRC5D
binder,measurement,value
"07A04 IgG (antibody, V domains shown) VH: QVTLKESGPGILQPSHTLSLTCSFSGFSLSTYGMGVNWIRQPSGKGLEWLASIWWNGNTYNNPSLKSRLTVSKDTSNNQAFLKVTSVDTADTATYYCVHTRGIIRGRGLFFDYWGQGVMVTVSS VL: DVQMTQSPYNLAASPGESVSINCKASKSISKYLAWYQQKPGKANKLLIYDGSTLQSGIPSRFSGSGSGTDFTLTIRSLEPEDFGLYYCQQHNEYPLTFGSGTKLEIKR",binding,binds
